The values below come from PubChem BioAssay AID901 (National Center for Advancing Translational Sciences (NCATS), 2007).

The other results are listed elsewhere or left out. Further columns of the screen follow, without active or inactive calls. The list favours compounds with an active or inconclusive main result. Words in brackets tell the shape of the fitted curve; partial curves, single points and poor fits give uncertain potencies.

The experiment in a line: qHTS Assay for Identifying the Cell-Membrane Permeable IMPase Inhibitors. The conditions noted are these: CHO-M1 cells, IP1 accumulation, HTRF TR-FRET ratio; measured here: donor channel 620 nm AC50. From the text: NCGC IMPase Assay Overview
Lithium has been widely used for the treatment of bipolar disorder. But lithium has a narrow therapeutic index and it can cause side effects such as thirst, weight gain, tremor, polyuria and memory problems. Although the mechanism for lithium action in treatment of bipolar disorder is still not fully understood, inhibition of inositol monophosphatase (IMPase) and the subsequent depletion of the inositol pool in living cells have been implicated as the primary therapeutic benefit of lithium therapy. Therefore, a selective IMPase inhibitor with reduced side effects might be a good drug candidate to replace lithium for the treatment of bipolar disorder. Several IMPase inhibitors have been discovered previously. However, they are not suitable for therapeutic use because of their poor cell membrane penetrability or oral bioavailability; the development of new cell-permeable IMPase inhibitors is needed.
IMPase catalyzes the hydrolysis of inositol-1-phosphate (IP1) to release free inositol. Binding of an agonist to a Gq coupled GPCR results in the activation of PLC, which hydrolyzes the PIP2 to form inositol-1,4,5-trisphosphate (IP3) and diacyl glycerol (DAG). While DAG activates protein kinase C (PKC), IP3 triggers the elevation of intracellular free Ca2+. The IP3 is very rapidly inactivated by hydrolysis to IP2, IP1 and then inositol by a series of enzymes including IMPase. Free inositols are used for synthesis of PI and thus start another inositol cycle.
To identify new cell-permeable IMPase inhibitors, we developed a cell-based IMPase assay in which the cytosolic IP1 is measured by a time-resolved fluorescence resonance energy transfer (TR-FRET) assay. In this assay, an IP1 specific antibody is used to detect the labeled IP1 tracer. When the cell lysate contains the elevated IP1 due to the inhibition of IMPase, the TR-FRET between the labeled antibody and IP1 tracer is disrupted resulting in a reduction in the total signal. Since the TR-FRET is used, this cell-based assay is a homogenous assay without cell wash and medium change that is suitable for assay miniaturization and HTS.
NCGC IMPase Assay Protocol Summary
A Chinese hamster ovary (CHO) cell line stably expressing the M1 receptor (CHO-M1) was obtained from ATCC and maintained in F-12 Kaighn's media (Invitrogen, Carlsbad, CA, 21127) supplemented with 10 % FBS, 100 units/ml penicillin, 100 ug/ml streptomycin and 250 ug/ml geneticin at 37C, 5% CO2 in a humidified atmosphere. Before the assay, aliquots of cells were frozen and stored at -135C. The assay was performed in 1536-well format. Data are reported for both the ratio of the two emission wavelengths, and also for the component 'donor' channel, Em2=620. […] AC50 values were determined from concentration-response data modeled with the standard Hill equation.
IMPase 1536-well assay protocol:
(1) Plate 4 ul/well (2000 cells) of cell suspension from frozen CHO-M1 Cells in white, tissue culture treated 1536-well plates that are cultured at 37C, 5 % CO2 for 16 to 30 hours.
(2) Add 23 nl/well of compound in DMSO solution. The final titration for each compound was between 0.6 nM and 46 uM.
(3) Add 1 ul of carbachol (50 uM in stimulation buffer containing10mM HEPES, 1mM CaCl2, 0.5 mM MgCl2, 4.2 mM KCl, 146 mM NaCl, 5.5 mM glucose, 50mM LiCl, pH 7.4.
(4) Incubation at 37C, 5 % CO2 for 30 min.
(5) Add 1 ul/well of d2-conjugated IP1 (d2-IP1) and 1 ul/well of Eu+ cryptate conjugated anti-IP1 antibody (Eu+-Ab) prepared in the cell lysis buffer, both from the IP-One kit (Cisbio, MA).
(6) Incubate at room temperature for 10 minutes.
(7) Detect the assay plate (Ex = 320, Em1 =665 and Em2 620) in a ViewLux plate reader.
inositol monophosphatase, IMPase, IMPase inhibitor, lithium, bipolar disorder, IP-One, HTRF, qHTS, NIH roadmap, NCGC
Note: In the gene ID and protein GI references for this assay, rat IMPase is referenced instead of hampster as hamster accession numbers were not available.
Background: qHTS replaces the single test concentration by a dilution series.
On to `O=C(Cn1c(=O)n(CC2CCCO2)c(=O)c2ccccc21)N1CCN(c2ccccc2)CC1` (stereo not drawn), for which the AC50 is 35.5 µM [falling, partial curve, poor fit].

Consider `CCCCOc1ccc(C(=O)CCN2CCCCC2)cc1`, for which the AC50 is 0.00126 µM [falling, full curve, poor fit]. For `O=C(CSc1nnc(-c2cccs2)n1-c1ccccc1)Nc1ccccc1` the value was 31.6 µM [rising, single point]; for `CN(C)/C=N/c1c(C#N)cnn1-c1nc2ccccc2s1`, 0.2 µM [rising, partial curve]. As for `CCc1ccccc1NC(=O)N[C@@H](C)C(=O)O`, the concentration at half-maximal activity (AC50) is 4.47 µM [rising, single point]. Consider `O=C(c1cncc(Br)c1)N1CCCc2ccccc21`, for which the AC50 was 28.2 µM [falling, single point]. Take `CC(=O)Nc1cc2c(cc1C(=O)C(C)C)OCCO2`: the AC50 was 0.251 µM [falling, full curve]. Regarding `CCOc1ccc(NCC2CCOC(C)(C)C2)cc1` (stereo not drawn), the AC50 was 12.6 µM [falling, single point].

Consider `C=CCn1c(COc2ccccc2-c2ccccc2)nnc1SCC(=O)NC(=O)NCc1ccco1`, for which the concentration at half-maximal activity (AC50) was 12.6 µM [falling, partial curve, poor fit]. For `Cc1ccc(NC(=O)C2CCCN(S(=O)(=O)c3c(C)noc3C)C2)c(C)c1` (stereo not drawn) the value was 6.31 µM [rising, partial curve, poor fit]; for `c1nc(NC2CCCCCC2)c2[nH]cnc2n1`, 0.0355 µM [rising, full curve].

As to `COc1ccc(-c2nnc(NC(=O)C(C)C)s2)c(OC)c1`, the AC50 was 31.6 µM [rising, single point].

Turning to `CCOC(=O)c1nc(N2CCN(C(=O)OCC)CC2)c2c3c(sc2n1)CCCC3`, the concentration at half-maximal activity (AC50) is 1 µM [falling, partial curve].

In the case of `CN(Cc1ccccc1)S(=O)(=O)c1ccc2c(c1)OCCO2`, the concentration at half-maximal activity (AC50) is 3.98 µM [rising, single point]. For `CCOC(=O)N1CCC(n2c(SCC(=O)OCc3ccccc3)nc3ccsc3c2=O)CC1` the value was 0.01 µM [rising, full curve, poor fit]; for `Cc1ccccc1CN1C(=O)C2(OCCCO2)c2ccccc21`, 1.58 µM [rising, full curve, poor fit]; for `N#Cc1c2c(c(NCCN3CCOCC3)n3c1nc1ccccc13)CCCC2`, 1.26 µM [falling, partial curve, poor fit]. With `CCN(Cc1ccccc1)C(=O)c1ccccc1C` the figure was 5.62 µM [rising, single point]; with `O=C(O)COc1ccc(-c2nnn(CC(=O)O)n2)cc1`, 3.16 µM [falling, single point]; with `COc1ccccc1NC(=O)Cc1noc(CN(C)Cc2cccs2)n1`, 3.16 µM [falling, partial curve]. With `CCn1c(SCC(=O)N2CCc3ccccc3C2)nc2sc(C)c(C)c2c1=O`, the half-maximal activity concentration (AC50) is 35.5 µM [rising, single point].

For the compound `CCS(=O)(=O)N1CCCC(C(=O)NC2CCCC2)C1` (stereo not drawn), the AC50 is 6.31 µM [rising, single point]. With `COc1ccccc1C1C=C(c2ccccc2)Nc2nnnn21` (stereo not drawn) the figure was 31.6 µM [falling, single point]. For `Cc1ccc(C)c(NC(=O)CN2C(=O)CNC2=O)c1` the value was 0.02 µM [falling, full curve, poor fit]. With `COc1cccc(N2CCN(C(=O)c3[nH]c(C)c(C(C)=O)c3C)CC2)c1` the figure was 6.31 µM [falling, single point]. For `CCOc1ccc(-n2c(SCC(=O)NC(C)CC)nc3n[nH]c(C)c3c2=N)cc1` (stereo not drawn), the AC50 is 25.1 µM [rising, single point]. Take `O=C(CSc1nnnn1-c1ccccc1Cl)Nc1ccc2c(c1)OCCO2`: the AC50 is 3.16 µM [falling, partial curve].

Take `O=C(CN1CCN(C(=O)c2ccco2)CC1)Nc1ccc2c(c1)OCCO2`: the half-maximal activity concentration (AC50) was 0.251 µM [rising, full curve, poor fit].

Turning to `CCOC(=O)c1ccc(CNC(=O)C2CCCCC2C(=O)OCC(F)(F)F)o1` (stereo not drawn), the half-maximal activity concentration (AC50) was 5.01 µM [falling, single point]. As for `O=C(c1cc(-c2ccc3c(c2)OCO3)on1)N1CCN(c2ccccc2)CC1`, the half-maximal activity concentration (AC50) was 0.316 µM [falling, full curve]. Take `Cc1cccc(OCc2nnc(SCC(=O)N3CCN(c4ccccc4)CC3)o2)c1C`: the AC50 is 0.316 µM [falling, full curve]. Consider `Cc1ccc(C(=O)c2oc3ccccc3c2NC(=O)COc2ccccc2Cl)cc1`, for which the AC50 was 31.6 µM [rising, single point]. For `CCCc1cc(C(=O)Nc2cccc(Cl)c2)no1`, the concentration at half-maximal activity (AC50) is 0.891 µM [falling, full curve]. Take `CC(=O)NCCn1c(SCC(=O)c2ccccc2)nc2ccccc2c1=O`: the AC50 is 0.0126 µM [rising, full curve, poor fit]. For `CCN1C(=O)c2cccc3c(N)ccc1c23` the value was 10 µM [falling, single point].

In the case of `O=C(NCc1ccco1)C(Cc1ccccc1)N1C(=O)c2ccccc2C1=O` (stereo not drawn), the AC50 was 1.26 µM [falling, full curve, poor fit].

Turning to `COC(=O)C(C)Oc1ccc(=O)[nH]n1` (stereo not drawn), the AC50 is 5.01 µM [falling, single point]. With `COc1ccc(N2C(=O)CC(Cc3ccccc3)C2=O)cc1` (stereo not drawn), the AC50 was 6.31 µM [falling, single point]. For `Cc1nc2c(n1C1CCCCC1)C(=O)c1ccccc1C2=O` the value was 10 µM [rising, single point]. With `COC(=O)CSc1nnc(CNC(=O)c2ccco2)n1-c1ccc(F)cc1` the figure was 3.16 µM [rising, full curve]; with `CCN(CC)C(=O)N1CCN(C(=O)c2ccc(C)cn2)CC1`, 5.01 µM [falling, single point]. With `COc1ccc(OC)c(Nc2nc(-c3sc(NC(=O)c4ccccc4)nc3C)cs2)c1`, the concentration at half-maximal activity (AC50) was 6.31 µM [rising, single point].

Consider `CCOC(=O)c1cc(OC(=O)c2ccc(OC)c(OC)c2)n(-c2ccccc2)n1`, for which the AC50 was 6.31 µM [falling, single point]. As to `COc1ccc(-c2cc(C(F)(F)F)n3nc(C(=O)N4CCCCC4)cc3n2)cc1OC`, the AC50 is 0.00501 µM [rising, full curve, poor fit]. With `CCOC(=O)Cc1nnc(NC(=O)CSc2nnc3c4ccccc4n(C(C)C)c3n2)s1`, the AC50 is 2 µM [rising, full curve]. With `CCOC(=O)c1[nH]c2cc(OC)c(OC)cc2c1N`, the AC50 was 12.6 µM [falling, single point]. For `CCOC(=O)C1=C(N)OC2=C(C(=O)CCC2)C1c1ccccc1OCC` (stereo not drawn), the concentration at half-maximal activity (AC50) was 3.98 µM [rising, full curve, poor fit]. Turning to `Cc1nnc(NC(=O)CCCCCN2C(=O)C3C4C=CC(C4)C3C2=O)s1` (stereo not drawn), the AC50 was 0.224 µM [falling, full curve, poor fit]. For `O=C(Cn1cnc2c(nnn2Cc2ccc(F)cc2)c1=O)N1CCCc2ccccc21` the value was 3.16 µM [rising, single point]. With `COC(=O)Sc1nnc(-c2ccc(Br)cc2)o1` the figure was 20 µM [rising, single point]; with `N#C/C(=C\c1c(Oc2ccc(Br)cc2)nc2ccccn2c1=O)c1nc2ccccc2s1`, 2.51 µM [falling, partial curve]. On to `Cc1ccc(N2C(=O)c3ccc(C(=O)N4CCOCC4)cc3C2=O)cc1C`, for which the AC50 was 12.6 µM [falling, partial curve].

For the compound `Oc1ccc(NCc2ccc(OCc3ccccc3Cl)cc2)cc1`, the half-maximal activity concentration (AC50) was 6.31 µM [falling, single point]. `Cn1c(SCC(=O)Nc2ccc3nc(SCC(=O)N4CCCC4)sc3c2)nnc1-c1ccccc1`: the AC50 is 0.00398 µM [falling, full curve, poor fit]. For `CCn1c(SCC(=O)Nc2nccs2)nnc1-c1ccc(S(=O)(=O)N2CCCCCC2)cc1` the value was 5.01 µM [rising, single point]; for `CC(C(=O)NCc1cccnc1)N1C(=O)c2ccccc2C1=O` (stereo not drawn), 1.26 µM [falling, full curve].

With `Cc1nc(C(C)(C)O)n(-c2ccccc2)n1`, the concentration at half-maximal activity (AC50) was 0.00501 µM [falling, full curve, poor fit]. For `CCCCN(CC)C(=O)Cc1ccccc1OC`, the AC50 was 7.94 µM [falling, partial curve, poor fit]. `CCCC1(C(=O)OCC)NC(c2ccc(OC)cc2OC)C2C(=O)N(c3ccccc3)C(=O)C21` (stereo not drawn): the AC50 was 0.02 µM [rising, full curve, poor fit]. For `N/C(=N\OC(=O)Cc1ccc(-c2ccccc2)cc1)c1ccccn1` the value was 25.1 µM [falling, single point].

On to `COc1ccc(NC(=O)Nc2ccccc2C)c(OC)c1`, for which the half-maximal activity concentration (AC50) was 3.16 µM [falling, single point]. As to `CCOc1ccccc1NC(=O)CSC1=Nc2ccccc2C2=NC(CC(=O)NC3CCCCC3)C(=O)N12` (stereo not drawn), the AC50 was 0.0224 µM [falling, full curve, poor fit].

With `CC(=O)NCCn1c(SCC(=O)NCCC(C)C)nc2ccccc2c1=O`, the AC50 was 1.26 µM [rising, partial curve, poor fit]. Turning to `NC(=O)c1ccccc1NC(=O)Nc1cccc(Cl)c1`, the AC50 was 31.6 µM [rising, single point]. Consider `O=C(CCS(=O)(=O)Cc1ccccc1)NCC1CCCO1` (stereo not drawn), for which the AC50 was 3.16 µM [rising, single point]. Consider `CC(Cc1cccs1)NC(=O)Nc1ccccc1` (stereo not drawn), for which the AC50 is 15.8 µM [rising, single point]. For `O=C(Nc1nccs1)c1ccc2nccnc2c1` the value was 0.794 µM [falling, full curve, poor fit]; for `COc1ccc(Oc2c(C=O)c3ccccc3n2C)cc1`, 15.8 µM [falling, single point].

A word on the AC50: it is the concentration at which the activity in the assay is half-maximal.
